The source of these data is paper PMC12320502.

Chains of the proteins cited; added tags and fusions are not shown. Lines headed by an entry give the natural chain unless they say otherwise; changes in a name come on top. Residues count along the entry.
UniProt Q8IVN8: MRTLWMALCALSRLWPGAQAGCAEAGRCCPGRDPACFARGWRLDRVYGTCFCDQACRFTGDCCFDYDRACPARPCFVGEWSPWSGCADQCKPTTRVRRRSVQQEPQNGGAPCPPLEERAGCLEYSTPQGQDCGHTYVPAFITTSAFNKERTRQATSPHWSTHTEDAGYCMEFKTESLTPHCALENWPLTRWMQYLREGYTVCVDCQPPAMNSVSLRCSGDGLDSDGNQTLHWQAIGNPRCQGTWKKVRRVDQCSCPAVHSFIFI
UniProt P11021, residues 19-654: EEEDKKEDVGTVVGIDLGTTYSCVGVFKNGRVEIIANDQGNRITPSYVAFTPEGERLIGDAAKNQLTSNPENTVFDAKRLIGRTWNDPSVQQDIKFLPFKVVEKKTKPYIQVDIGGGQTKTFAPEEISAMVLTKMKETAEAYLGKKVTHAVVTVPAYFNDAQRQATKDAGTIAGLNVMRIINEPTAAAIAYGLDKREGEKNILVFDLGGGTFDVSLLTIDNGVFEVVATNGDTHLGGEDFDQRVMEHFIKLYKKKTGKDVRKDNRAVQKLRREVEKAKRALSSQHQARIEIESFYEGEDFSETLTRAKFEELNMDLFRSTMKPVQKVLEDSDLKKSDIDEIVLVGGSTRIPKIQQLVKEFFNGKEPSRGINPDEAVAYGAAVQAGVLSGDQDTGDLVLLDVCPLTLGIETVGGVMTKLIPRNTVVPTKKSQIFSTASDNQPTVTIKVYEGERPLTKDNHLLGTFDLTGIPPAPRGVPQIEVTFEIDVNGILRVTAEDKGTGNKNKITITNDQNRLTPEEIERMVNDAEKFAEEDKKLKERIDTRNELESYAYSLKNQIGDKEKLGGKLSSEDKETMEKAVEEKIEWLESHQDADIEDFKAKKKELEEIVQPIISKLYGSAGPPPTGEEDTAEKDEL

In this experiment the target is SBSPON ASP88Vla mutant, 3×Flag-tagged (human) (UniProt Q8IVN8). Nature of the experiment: co-IP; cell lysates immunoprecipitated with anti-Flag (SBSPON) or anti-Myc (HSPA5) antibodies, then immunoblotting; NP-40 lysates, protein A/G agarose beads.

Results are given in words; binding and its absence hold for the method and conditions named. Binding seen in cells or lysates may run through a third protein. A result given as binding can be weak or reduced; the word gives no strength.

For “HSPA5 tagged with Myc (pcDNA3.1) (from UniProt P11021 19-654)”, the binding result was “binds”.
